Reference: patent publication US4089966A, “5-N-(3-Amino-2-hydroxy-propyl)-amino-1,2,4-oxadiazole derivatives, processes for their preparation and applications thereof” (Aron Sarl, priority 1975, dated 1978)
Where a name gives a salt, the structure may show the parent alone. For at least one compound, name, drawing or mass did not settle the structure.

Tested on: BaCl2 -induced contraction of the duodenum
Test: Antispasmodic activity compared to Papaverine (BaCl2-induced contraction of the duodenum)
Conditions: Papaverine = 1

CCN(CC)CC(O)CNc1nc(-c2ccc(F)cc2)no1 (stereo not shown) [Example 4, 5-(3-diethylamino-2-hydroxy-propyl)-amino-3-(4-fluorophenyl)-1,2,4-oxadiazole fumarate]
Ratio between the dosage of Papaverine and the dosage of Compound (1) producing the same antispasmodic activity: 0.8
